According to the supplement of paper PMC4604168 (melanoma cell lines):
The list shows a part of the results. Single values are uncertain, as repeats are few or missing.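 Cells were imaged in 1,536-well plates, and nuclei stained with an antibody against cleaved PARP were counted against all DNA-stained nuclei to give the apoptosis fraction. Screening doses were chosen to leave most cells alive, and resting and induced cleaved-PARP levels differ strongly between cell lines.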

Columns and labels:
Assay in all cases: cleaved PARP positive nuclei fraction relative to DMSO control; melanoma cells; higher = more apoptosis
Settings in all cases: library dose: low library concentration; 72 h
MZ2-MEL = tested on: MZ2-MEL
MeWo = tested on: MeWo
RPMI7951 = tested on: RPMI7951
RVH-421 = tested on: RVH-421
SkMel28 = tested on: SkMel28
SkMel2 = tested on: SkMel2
SkMel30 = tested on: SkMel30
UACC62 = tested on: UACC62
WM115 = tested on: WM115
WM1716 = tested on: WM1716
WM1745 = tested on: WM1745
WM3526 = tested on: WM3526
WM3619 = tested on: WM3619
WM451Lu = tested on: WM451Lu

Compound	cleaved PARP positive nuclei fraction (MZ2-MEL) [%]	cleaved PARP positive nuclei fraction (MeWo) [%]	cleaved PARP positive nuclei fraction (RPMI7951) [%]	cleaved PARP positive nuclei fraction (RVH-421) [%]	cleaved PARP positive nuclei fraction (SkMel28) [%]	cleaved PARP positive nuclei fraction (SkMel2) [%]	cleaved PARP positive nuclei fraction (SkMel30) [%]	cleaved PARP positive nuclei fraction (UACC62) [%]	cleaved PARP positive nuclei fraction (WM115) [%]	cleaved PARP positive nuclei fraction (WM1716) [%]	cleaved PARP positive nuclei fraction (WM1745) [%]	cleaved PARP positive nuclei fraction (WM3526) [%]	cleaved PARP positive nuclei fraction (WM3619) [%]	cleaved PARP positive nuclei fraction (WM451Lu) [%]
C[C@]1(O)C[C@@H](c2nc(-c3ccc4ccc(-c5ccccc5)nc4c3)c3c(N)nccn32)C1 + N.N.[Cl][Pt][Cl] [cisplatin] (first compound 0.4 µM, partner dose 1.6 µM)	112	104	173	57.8	108	68.4	36.2	26.7	114	85.5	115	21.6	83.1	99
Cn1cc(C2=C(c3cn(C4CCN(Cc5ccccn5)CC4)c4ccccc34)C(=O)NC2=O)c2ccccc21 [Enzastaurin] + Nc1nc(F)nc2c1ncn2[C@@H]1O[C@H](CO)[C@@H](O)[C@@H]1O [fludarabine] (first compound 0.8 µM, partner dose 0.2 µM)	72.5	731	94.5	37.9	52.4	487	416	48.8	20.5	57.8	94.8	244	106	57.5
Cc1cc(Nc2cc(N3CCN(C)CC3)nc(Sc3ccc(NC(=O)C4CC4)cc3)n2)n[nH]1 [Tozasertib] + Cn1cc(C2=C(c3cn(C4CCN(Cc5ccccn5)CC4)c4ccccc34)C(=O)NC2=O)c2ccccc21 [Enzastaurin] (first compound 0.006 µM, partner dose 0.8 µM)	240	74.4	232	51.9	71.5	165	180	65.1	140	157	118	40.5	105	45.4
N.N.[Cl][Pt][Cl] [cisplatin] + C[As](C)SC[C@H](NC(=O)CC[C@H](N)C(=O)O)C(=O)NCC(=O)O [Darinaparsin] (first compound 1.6 µM, partner dose 0.4 µM)	82.2	94.3	64.3	46.4	77	92.5	56.4	73.2	94	70.7	94.5	42.2	74.4	40.9
N.N.[Cl][Pt][Cl] [cisplatin] + OCc1c[nH]c2ccccc12 [Indole-3-carbinol] (first compound 1.6 µM, partner dose 0.8 µM)	267	114	84.1	48.4	40.8	36	123	33.7	101	94.2	89.1	85.8	96.5	142
C[C@]1(O)C[C@@H](c2nc(-c3ccc4ccc(-c5ccccc5)nc4c3)c3c(N)nccn32)C1 + C[As](C)SC[C@H](NC(=O)CC[C@H](N)C(=O)O)C(=O)NCC(=O)O [Darinaparsin] (first compound 0.4 µM, partner dose 0.4 µM)	104	121	93.7	137	80.7	160	253	42.2	155	66.2	114	28.3	84.8	141
Cc1cn(-c2cc(NC(=O)c3ccc(C)c(Nc4nccc(-c5cccnc5)n4)c3)cc(C(F)(F)F)c2)cn1 [nilotinib] + Cn1cc(C2=C(c3cn(C4CCN(Cc5ccccn5)CC4)c4ccccc34)C(=O)NC2=O)c2ccccc21 [Enzastaurin] (first compound 0.2 µM, partner dose 0.8 µM)	95	21.6	232	66.6	72.4	135	76.2	96.2	48.4	338	105	45.3	119	147
Cn1cc(C2=C(c3cn(C4CCN(Cc5ccccn5)CC4)c4ccccc34)C(=O)NC2=O)c2ccccc21 [Enzastaurin] + CN1CCN(c2ccc3nc(-c4c(N)c5c(F)cccc5[nH]c4=O)[nH]c3c2)CC1 [Dovitinib] (first compound 0.8 µM, partner dose 0.1 µM)	43.9	51.8	94.2	166	86.1	427	105	90.8	93.2	33.5	107	45.5	78.5	257
Cn1cc(C2=C(c3cn(C4CCN(Cc5ccccn5)CC4)c4ccccc34)C(=O)NC2=O)c2ccccc21 [Enzastaurin] + CC(=O)c1c(C)c2cnc(Nc3ccc(N4CCNCC4)cn3)nc2n(C2CCCC2)c1=O [palbociclib] (first compound 0.8 µM, partner dose 0.04 µM)	42.3	63.1	141	78.6	111	108	161	162	63.5	45.7	129	175	90.4	89.2
Cn1cc(C2=C(c3cn(C4CCN(Cc5ccccn5)CC4)c4ccccc34)C(=O)NC2=O)c2ccccc21 [Enzastaurin] + Cn1sc(=O)n(Cc2ccccc2)c1=O [TDZD-8] (first compound 0.8 µM, partner dose 0.4 µM)	91.5	120	95.8	38.3	68	177	59.2	270	51.2	117	91.8	33.7	77.3	105
C[C@@H](N)c1ccc(C(=O)Nc2ccnc3[nH]ccc23)cc1 + C[As](C)SC[C@H](NC(=O)CC[C@H](N)C(=O)O)C(=O)NCC(=O)O [Darinaparsin] (first compound 0.4 µM, partner dose 0.4 µM)	152	299	92.6	216	110	125	192	296	94.3	108	117	35	78.3	144
N.N.[Cl][Pt][Cl] [cisplatin] + CN1CCN(c2ccc3nc(-c4c(N)c5c(F)cccc5[nH]c4=O)[nH]c3c2)CC1 [Dovitinib] (first compound 1.6 µM, partner dose 0.1 µM)	149	370	114	114	38.8	199	132	157	173	34.9	101	72.6	91.3	152
O=c1[nH]nc(Sc2ncc([N+](=O)[O-])s2)n1-c1ccc2c(c1)OCCO2 + Cn1cc(C2=C(c3cn(C4CCN(Cc5ccccn5)CC4)c4ccccc34)C(=O)NC2=O)c2ccccc21 [Enzastaurin] (first compound 0.2 µM, partner dose 0.8 µM)	55.6	105	47.7	78.2	78.5	123	158	57.9	22.1	43.6	94	157	93.4	79.5
N.N.[Cl][Pt][Cl] [cisplatin] + Cn1nnc2c(C(N)=O)ncn2c1=O [temozolomide] (first compound 1.6 µM, partner dose 2 µM)	102	69.3	43.4	111	201	60.5	18.7	134	101	73.6	94.1	34.5	103	128
COc1ccc(C2=N[C@@H](c3ccc(Cl)cc3)[C@@H](c3ccc(Cl)cc3)N2C(=O)N2CCNC(=O)C2)c(OC(C)C)c1 [Nutlin-3] + C[As](C)SC[C@H](NC(=O)CC[C@H](N)C(=O)O)C(=O)NCC(=O)O [Darinaparsin] (first compound 0.1 µM, partner dose 0.4 µM)	60.5	379	139	177	49.3	45.4	167	112	104	171	161	35.6	96	162
CN(c1ncccc1CNc1nc(Nc2ccc3c(c2)CC(=O)N3)ncc1C(F)(F)F)S(C)(=O)=O + C[As](C)SC[C@H](NC(=O)CC[C@H](N)C(=O)O)C(=O)NCC(=O)O [Darinaparsin] (first compound 0.08 µM, partner dose 0.4 µM)	195	109	127	138	87.1	193	110	199	120	78.7	108	61.8	92.9	48.9
C[C@@H](Oc1cc(-c2cnn(C3CCNCC3)c2)cnc1N)c1c(Cl)ccc(F)c1Cl [Crizotinib] + C[As](C)SC[C@H](NC(=O)CC[C@H](N)C(=O)O)C(=O)NCC(=O)O [Darinaparsin] (first compound 0.2 µM, partner dose 0.4 µM)	35.6	29.5	66.5	95.1	75.2	87.5	22.7	53.3	72.2	84.1	86.7	46	82.2	50.8
N#CC[C@H](C1CCCC1)n1cc(-c2ncnc3[nH]ccc23)cn1 [ruxolitinib] + C[As](C)SC[C@H](NC(=O)CC[C@H](N)C(=O)O)C(=O)NCC(=O)O [Darinaparsin] (first compound 1 µM, partner dose 0.4 µM)	95.5	163	35.8	227	36.2	240	63.6	49.7	68.4	65.8	93.5	83.8	98	101
CS(=O)(=O)CCNCc1ccc(-c2ccc3ncnc(Nc4ccc(OCc5cccc(F)c5)c(Cl)c4)c3c2)o1 [lapatinib] + C[As](C)SC[C@H](NC(=O)CC[C@H](N)C(=O)O)C(=O)NCC(=O)O [Darinaparsin] (first compound 0.8 µM, partner dose 0.4 µM)	99.4	117	37.7	136	101	64.3	172	179	168	120	91.9	141	80.6	96.8

In another format: results already given
Compound,cleaved PARP positive nuclei fraction (MZ2-MEL) [%],cleaved PARP positive nuclei fraction (MeWo) [%],cleaved PARP positive nuclei fraction (RPMI7951) [%],cleaved PARP positive nuclei fraction (RVH-421) [%],cleaved PARP positive nuclei fraction (SkMel28) [%],cleaved PARP positive nuclei fraction (SkMel2) [%],cleaved PARP positive nuclei fraction (SkMel30) [%],cleaved PARP positive nuclei fraction (UACC62) [%],cleaved PARP positive nuclei fraction (WM115) [%],cleaved PARP positive nuclei fraction (WM1716) [%],cleaved PARP positive nuclei fraction (WM1745) [%],cleaved PARP positive nuclei fraction (WM3526) [%],cleaved PARP positive nuclei fraction (WM3619) [%],cleaved PARP positive nuclei fraction (WM451Lu) [%]
"Cc1cc(Nc2cc(N3CCN(C)CC3)nc(Sc3ccc(NC(=O)C4CC4)cc3)n2)n[nH]1 [Tozasertib] + Cn1cc(C2=C(c3cn(C4CCN(Cc5ccccn5)CC4)c4ccccc34)C(=O)NC2=O)c2ccccc21 [Enzastaurin] (first compound 0.006 µM, partner dose 0.8 µM)",240,74.4,232,51.9,71.5,165,180,65.1,140,157,118,40.5,105,45.4
"CS(=O)(=O)CCNCc1ccc(-c2ccc3ncnc(Nc4ccc(OCc5cccc(F)c5)c(Cl)c4)c3c2)o1 [lapatinib] + C[As](C)SC[C@H](NC(=O)CC[C@H](N)C(=O)O)C(=O)NCC(=O)O [Darinaparsin] (first compound 0.8 µM, partner dose 0.4 µM)",99.4,117,37.7,136,101,64.3,172,179,168,120,91.9,141,80.6,96.8
